{"source": "the supplement of paper PMC5949888", "note": "Most values lie at the floor of the assay. Slopes are relative: functional sequences can read slightly below zero.", "data": [{"system": "Saccharomyces cerevisiae PS128 hsf1 delta, HSF1(1-493) fusion", "assay": "growth estimate (transactivation domain function in HSF1 fusion, heat-shock survival) (a.u. (slope of normalised read count over time)); higher = stronger growth at 37°C, i.e. more transactivation activity", "conditions": "library: random library", "protocol": "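Random 60-nt DNA library encoding peptides of up to 20 aa, fused to the C-terminus of yeast HSF1 residues 1-493 (C-terminal TAD deleted) and expressed from the native HSF1 promoter on a CEN plasmid in hsf1-deleted S. cerevisiae PS128. Cells were selected at 37°C on -trp 5-FOA plates for 0, 2, 4, 6 and 8 days and amplicons were sequenced. Growth estimate is the slope of a robust linear fit of total-sum-normalised read counts (normalised to the first time point) over time, using at least 2 replicates. Sequences are classed functional (TAD activity) above a threshold of -0.13, set from stop-codon control sequences.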", "values": [{"substance": "ITGSGDFVVRRA", "growth estimate": "< -0.25"}, {"substance": "AYILIGSE", "growth estimate": "< -0.25"}, {"substance": "ASSRHK", "growth estimate": "< -0.25"}, {"substance": "LLDILEGTYPMGYDVSPSFV", "growth estimate": 0.945}, {"substance": "LSYSALCCGSSFRPFCPEMC", "growth estimate": "< -0.25"}, {"substance": "LGVTKSMRASWAVSWI", "growth estimate": "< -0.25"}, {"substance": "PVSIPKWKQSGTELAVGSKL", "growth estimate": "< -0.25"}, {"substance": "PRKGGLVCRRRSAPPGTSNS", "growth estimate": "< -0.25"}, {"substance": "NSH", "growth estimate": "< -0.25"}, {"substance": "RRRIFLGNSIRAPI", "growth estimate": "< -0.25"}, {"substance": "PRFLTQKGYCSVEGHWQIIK", "growth estimate": "< -0.25"}, {"substance": "GPAGP", "growth estimate": "< -0.25"}, {"substance": "TSHLKSMQSLSLGRVHKHG", "growth estimate": "< -0.25"}, {"substance": "WAQVAGYSVGRRPVR", "growth estimate": "< -0.25"}, {"substance": "AHTL", "growth estimate": -0.243}, {"substance": "DRNGNGPKVF", "growth estimate": "< -0.25"}, {"substance": "KRKRGQPRVYQV", "growth estimate": "< -0.25"}, {"substance": "QGAGQSRPT", "growth estimate": "< -0.25"}, {"substance": "IRPLCNRCAERIRW", "growth estimate": "< -0.25"}, {"substance": "FVRQTSSLMDWMLSSVISAL", "growth estimate": "< -0.25"}, {"substance": "RKSVVLMEEGEFSCGRETCT", "growth estimate": "< -0.25"}, {"substance": "CPVCNPALRATRRI", "growth estimate": "< -0.25"}, {"substance": "LPKGDRLDRRAGFGNSFHRP", "growth estimate": "< -0.25"}, {"substance": "AVTVLEHSGPGGPTPTLLAF", "growth estimate": "< -0.25"}, {"substance": "ESTLK", "growth estimate": "< -0.25"}, {"substance": "MPRDGCLT", "growth estimate": -0.246}, {"substance": "WAVHRVQWVGRSNKELFAC", "growth estimate": "< -0.25"}, {"substance": "GLSMDIGLIRI", "growth estimate": "< -0.25"}, {"substance": "RTETITGF", "growth estimate": "< -0.25"}, {"substance": "CISIAPRG", "growth estimate": "< -0.25"}, {"substance": "KLGFSSTSTNSGIPLGVRDS", "growth estimate": "< -0.25"}, {"substance": "MFKLAYGGAFAAEIRNLTGY", "growth estimate": "< -0.25"}, {"substance": "NTDIRSINYRTWLVIRCAMW", "growth estimate": "< -0.25"}, {"substance": "GTQLRLLSGQSREILSFGCG", "growth estimate": "< -0.25"}, {"substance": "TAGCNSPLIPRETDWTLLGK", "growth estimate": "< -0.25"}, {"substance": "GRGLAQADGSSRVKTGHSTH", "growth estimate": "< -0.25"}, {"substance": "IKYGLIAVRRNYITGAIVST", "growth estimate": "< -0.25"}, {"substance": "KDLSVSCE", "growth estimate": "< -0.25"}, {"substance": "ARWSWAPTAMCS", "growth estimate": "< -0.25"}, {"substance": "IRFRRGE", "growth estimate": "< -0.25"}, {"substance": "LSVCGSTGVLTHPTRRA", "growth estimate": "< -0.25"}, {"substance": "GDQ", "growth estimate": "< -0.25"}, {"substance": "PGTWE", "growth estimate": "< -0.25"}, {"substance": "CGTATQPVN", "growth estimate": "< -0.25"}, {"substance": "RSNQARGGMVIPGVHR", "growth estimate": "< -0.25"}, {"substance": "EPLLEMQTQAQGQYSTCPSP", "growth estimate": "< -0.25"}, {"substance": "VSVTRAVFRHEAVYLIPLRA", "growth estimate": "< -0.25"}, {"substance": "RIY", "growth estimate": "< -0.25"}, {"substance": "FGTDSAVGVSSCAAVLDQAI", "growth estimate": "< -0.25"}, {"substance": "DKLYFEGTRFASSRDG", "growth estimate": "< -0.25"}, {"substance": "PTGPKGTLACTNPKCRAQTI", "growth estimate": "< -0.25"}, {"substance": "YMQDRWEVRRMAGLPATNLI", "growth estimate": "< -0.25"}, {"substance": "PRIESFVGLRDTKVYGHSTL", "growth estimate": "< -0.25"}, {"substance": "CKRGA", "growth estimate": "< -0.25"}, {"substance": "GWLRQC", "growth estimate": "< -0.25"}, {"substance": "GRGFHRPRVLVELQAIPGRT", "growth estimate": "< -0.25"}, {"substance": "SGDVGHRCRISSYTKRDDLL", "growth estimate": "< -0.25"}, {"substance": "THGEVCMGHSMGPT", "growth estimate": "< -0.25"}, {"substance": "SLQYDIIRPILKGSRNYNVA", "growth estimate": "< -0.25"}, {"substance": "RLCYRPNGRPPRVHHVIFSM", "growth estimate": "< -0.25"}, {"substance": "FDSPSVRERRSKSFPSGRRG", "growth estimate": "< -0.25"}, {"substance": "SRHTILPSALSSTSTAHLAQ", "growth estimate": "< -0.25"}, {"substance": "RVRDPSFSKGEILG", "growth estimate": "< -0.25"}, {"substance": "SKLFSERPTGTPQSRDKVRK", "growth estimate": "< -0.25"}, {"substance": "VRGRINGLDQILKETTADPN", "growth estimate": "< -0.25"}, {"substance": "LLGCL", "growth estimate": "< -0.25"}, {"substance": "EHGLWIVS", "growth estimate": "< -0.25"}, {"substance": "FWVCIRRHPLNIGSADTSLG", "growth estimate": "< -0.25"}, {"substance": "FVSKKLIRCRS", "growth estimate": "< -0.25"}, {"substance": "PAVGPPS", "growth estimate": "< -0.25"}, {"substance": "AKFGRRMARLVPPLTMLLNG", "growth estimate": "< -0.25"}, {"substance": "HRGMSALRT", "growth estimate": "< -0.25"}, {"substance": "ESHSFTLDR", "growth estimate": "< -0.25"}, {"substance": "PEIVTCSGRVDRRQN", "growth estimate": "< -0.25"}, {"substance": "TLVGSAGADLAGSHGSPSRV", "growth estimate": "< -0.25"}, {"substance": "VSS", "growth estimate": "< -0.25"}, {"substance": "FSQRSATLRSNRPRKWGLTC", "growth estimate": "< -0.25"}, {"substance": "RYRQTAPYPADSKRS", "growth estimate": -0.233}, {"substance": "LGTP", "growth estimate": "< -0.25"}, {"substance": "HVFTAFR", "growth estimate": "< -0.25"}, {"substance": "DIDGS", "growth estimate": "< -0.25"}, {"substance": "GRMSHGDTSMLVM", "growth estimate": "< -0.25"}, {"substance": "EICYLVQRMLVRGELKFLCT", "growth estimate": "< -0.25"}, {"substance": "LGCHGLRVGTGYRHG", "growth estimate": "< -0.25"}, {"substance": "SRVGKVIGC", "growth estimate": "< -0.25"}, {"substance": "GPWIDMLLRRVVSQFWPQRA", "growth estimate": "< -0.25"}, {"substance": "GFLALRSSSMQICPRL", "growth estimate": -0.246}, {"substance": "LKLTKAIRNVTVRQLELQDF", "growth estimate": "< -0.25"}, {"substance": "YVDKRAILSGNRVCRCLPGG", "growth estimate": "< -0.25"}, {"substance": "RALFTNV", "growth estimate": "< -0.25"}, {"substance": "AYGEGFYGLLAVTRGF", "growth estimate": "< -0.25"}, {"substance": "QPWMGLLAADFSAAFLRQLL", "growth estimate": "< -0.25"}, {"substance": "GNSMAVPIWFGWLERSEIS", "growth estimate": -0.217}, {"substance": "QRERPSVDRGRT", "growth estimate": "< -0.25"}, {"substance": "LDERLMVWLR", "growth estimate": "< -0.25"}, {"substance": "SIKHVDQMWYSCGGNFDAAI", "growth estimate": -0.225}, {"substance": "RSSCSSERGVQSLGYHWFAF", "growth estimate": "< -0.25"}, {"substance": "ALGEPSTCRVVAAYFDSCSS", "growth estimate": "< -0.25"}, {"substance": "KSACMKNFVVSRSV", "growth estimate": "< -0.25"}, {"substance": "FRQPRLKGLEE", "growth estimate": "< -0.25"}, {"substance": "SFTGRE", "growth estimate": "< -0.25"}, {"substance": "SNLRLHHHLSL", "growth estimate": "< -0.25"}, {"substance": "DVAV", "growth estimate": "< -0.25"}, {"substance": "RRLVGNGLGLRCNKSRTIPN", "growth estimate": "< -0.25"}, {"substance": "VVHDIGRKSAHARFVEIRHL", "growth estimate": "< -0.25"}, {"substance": "IWYC", "growth estimate": "< -0.25"}, {"substance": "IRGWEDRLSRVYVERPDAKA", "growth estimate": "< -0.25"}, {"substance": "YLEYSLLQREFPRR", "growth estimate": "< -0.25"}, {"substance": "DDPCV", "growth estimate": "< -0.25"}, {"substance": "RSCGTGPVCD", "growth estimate": "< -0.25"}, {"substance": "DIAGRS", "growth estimate": "< -0.25"}, {"substance": "PLAARLLTL", "growth estimate": "< -0.25"}, {"substance": "WDGPPVLNTDHDFLSRSTVP", "growth estimate": "< -0.25"}, {"substance": "LVTTFAQVLKRGFLHSSLLL", "growth estimate": "< -0.25"}, {"substance": "LVLTNSCGQYLE", "growth estimate": "< -0.25"}, {"substance": "PPGGLMRT", "growth estimate": "< -0.25"}, {"substance": "GEYSVSETASGDPGADIKKS", "growth estimate": "< -0.25"}, {"substance": "MGFALKQPVCGAAAECPKAT", "growth estimate": "< -0.25"}, {"substance": "GRNLRPLVSIGYASTNTQSA", "growth estimate": "< -0.25"}, {"substance": "KVRVSVVADPKCKI", "growth estimate": "< -0.25"}, {"substance": "IAVDPNVLGTDKSSSIATHS", "growth estimate": "< -0.25"}, {"substance": "KCGASFETNRVGRHLAIFVR", "growth estimate": "< -0.25"}, {"substance": "YGQVSLESIGRGLAKR", "growth estimate": "< -0.25"}, {"substance": "WSSPNVSRGHRLSPCGSTNC", "growth estimate": "< -0.25"}, {"substance": "SPLRYNTIMYIITGLWLRDV", "growth estimate": "< -0.25"}, {"substance": "FMCMSLTPRGSQP", "growth estimate": "< -0.25"}, {"substance": "DPVLRVGGETPVSQAFRAWI", "growth estimate": "< -0.25"}, {"substance": "MGNRDAEKAE", "growth estimate": "< -0.25"}, {"substance": "RGG", "growth estimate": "< -0.25"}, {"substance": "VMVVRVFKYGNITGCGSKNP", "growth estimate": "< -0.25"}, {"substance": "KGVWVDGTASSGRYRNKYPE", "growth estimate": 0.0553}, {"substance": "VHFRVAGELG", "growth estimate": "< -0.25"}, {"substance": "TWVRNKQSTTWPRCTSSTVR", "growth estimate": "< -0.25"}, {"substance": "ESTCVDSG", "growth estimate": -0.189}, {"substance": "VGDTDLGLSVR", "growth estimate": "< -0.25"}, {"substance": "YIHYI", "growth estimate": "< -0.25"}, {"substance": "AML", "growth estimate": "< -0.253"}, {"substance": "VICSRM", "growth estimate": "< -0.25"}, {"substance": "NQDAGKSALSSPGKCSRPKG", "growth estimate": -0.246}, {"substance": "SIRGGHSREVGKYHQQ", "growth estimate": "< -0.25"}, {"substance": "HTSQSEKLTQVI", "growth estimate": "< -0.25"}, {"substance": "YQRFE", "growth estimate": "< -0.25"}, {"substance": "YGFRLYLVCKRCAACLSGSV", "growth estimate": "< -0.25"}, {"substance": "NFQLSAWPMNIGQTEDENRN", "growth estimate": "< -0.25"}, {"substance": "RRTCGLYTITHHKILALSRR", "growth estimate": "< -0.25"}, {"substance": "VGIQRKQCRRIRGLILYCAH", "growth estimate": "< -0.25"}, {"substance": "ALRLHCGGEPGPRRGEMHSE", "growth estimate": "< -0.25"}, {"substance": "DGYWSVGDIIIGRNSGPFLN", "growth estimate": "< -0.25"}, {"substance": "LAARGINPTNRPRVISPCDS", "growth estimate": "< -0.25"}, {"substance": "STMGQHSSLDDKTEPRESRM", "growth estimate": "< -0.25"}, {"substance": "SVLV", "growth estimate": "< -0.25"}, {"substance": "ACPCPGVATQMLFCLTTTRP", "growth estimate": "< -0.25"}]}]}
